Our source for the binding values is patent publication US20260234559A1.

Amino acid sequences for entries named in this document (tags omitted). A change or cut given only in a name is not applied to a line headed by its entry. Residues count along the entry.
UniProt P28906, residues 32-290: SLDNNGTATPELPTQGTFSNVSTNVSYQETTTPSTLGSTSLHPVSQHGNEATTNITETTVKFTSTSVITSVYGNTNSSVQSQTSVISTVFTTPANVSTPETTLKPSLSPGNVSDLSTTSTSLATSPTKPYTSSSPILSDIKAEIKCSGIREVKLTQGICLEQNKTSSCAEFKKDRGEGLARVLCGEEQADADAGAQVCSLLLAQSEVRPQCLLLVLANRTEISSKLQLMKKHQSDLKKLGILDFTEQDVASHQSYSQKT

Results are given in words; binding and its absence hold for the method and conditions named. Some binding calls cover weakened binding; strength is not graded here. For part of these data: Tags and fused reporters may be left off the sequences shown.

In assay [1] the target is recombinant Human CD34-Fc tagged fusion protein (cat 10103-H02H, Sino Biological) (human) (UniProt P28906). Description: flow cytometry; scFv on transduced Tregs stained with soluble CD34-Fc and anti-human Alexa Fluor 647. Background: Flow cytometry measures light scatter and fluorescence of single cells or particles in a stream.
For assay [2] the target is unchanged. Description: flow cytometry; scFv on transduced Tregs incubated with soluble CD34-Fc, detected with secondary anti-Fc antibody.
Assay [3] has the same target. Description: flow cytometry; scFv on cells, detected by two-step staining with CD34 Fc-Tagged and anti-human IgG (method in paragraph 263).

B1: 34-m-scFv (non-activating CD34-targeting scFv derived from QBEND/10 anti-CD34, on human CD28 hinge with myc-tag and CD28 transmembrane domain, expressed on … (scFv, V domains shown)
VH: QVQLVQSGAELVKPGASVKMSCKASGYTFTSYVIHWVKQKPGQGLEWLGYTNPYNDVTKYNEKFKFKATLTSDTSSTTAYMEFSSLTSEDSAVYYCARYGGLWLYAMDYWGQGTSVTVSS
VL: QLVLTQSPSASFSLGASAKLTCTLSSQHRTFTIEWYQQQPEKPPKYVMELRKDGSHSKGDGIPDRFSGSSSGADRYLSISSIQPEDEAIYICGVGNTIKEQFVYVFGTGTKVTVL
Regarding B1, the binding entry in assay [1] and in assay [2] was “binds” each time.

B2: 34-m-scFv with Linker_2 (QBEND/10 anti-CD34 scFv, linker encoded by SEQ ID NO: 32) (scFv, V domains shown)
VH: B1 VH
VL: B1 VL
Turning to B2, the binding entry in assay [3] is given as “binds”.

B3: 34-m-scFv with Linker_4 (QBEND/10 anti-CD34 scFv, linker encoded by SEQ ID NO: 34) (scFv, V domains shown)
VH: B1 VH
VL: B1 VL
Regarding B3, in assay [3], the binding result is listed as “binds”.

B4: 34-m-scFv with Linker_1 (QBEND/10 anti-CD34 scFv, linker encoded by SEQ ID NO: 31) (scFv, V domains shown)
VH: B1 VH
VL: B1 VL
For B4, the binding result in assay [3] is “binds”.

B5: 34-m-scFv with Linker_3 (QBEND/10 anti-CD34 scFv, linker encoded by SEQ ID NO: 33) (scFv, V domains shown)
VH: B1 VH
VL: B1 VL
For the molecule B5, the binding entry in assay [3] is recorded as “binds”.
